{"source": "the supplement of paper PMC8728848", "binders": {"B1": {"name": "SJCP3842 (Schistosoma japonicum) (protein)", "chain": "MFKMRIINLVNISTVLLLINLLQTKSRLVGKENGFMLTVSIYGAQLSDKMTSVPVSWTIDYEDPEKSAFKKLVTDSCDTFSEYVKSQIPKGSVDGQCTSHIFQRPGSGSGVSISLTLSFIYVDVTQPDTVALKTELEKHFANFVTIHSHKITQAQFRINQKAIVIPTGDKDAIDGSKWKIIAIIALVALAIVVIGGFIYICVK"}}, "assay_in_all_cases": "glycan array binding signal (z-score within array); higher = stronger binding", "details_in_all_cases": "glycan notation: IUPAC condensed, linker removed", "key": {"[1]": {"molecular_target": "Gal3S(b1-4)Glc", "method_in_brief": "(§1)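 Glycan array data came from 3228 arrays in the Consortium for Functional Glycomics database, and only arrays with an available protein sequence were kept. Glycan names were put into IUPAC-condensed notation, and columns mapping to the same glycan were averaged. The binding signal is a within-array Z-score, averaged across arrays of one protein sequence run at different concentrations or buffers and across linkers. A negative Z-score can be read as non-binding.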"}, "[2]": {"molecular_target": "Gal3S(b1-4)Glc6S", "method_in_brief": "as §1"}, "[3]": {"molecular_target": "Gal3S(b1-4)GlcNAc", "method_in_brief": "as §1"}, "[4]": {"molecular_target": "Gal3S(b1-4)[Fuc(a1-3)]Glc6S", "method_in_brief": "as §1"}, "[5]": {"molecular_target": "Gal3S(b1-4)[Fuc(a1-3)]GlcNAc", "method_in_brief": "as §1"}, "[6]": {"molecular_target": "Gal3S(b1-4)[Fuc(a1-3)]GlcNAc6S", "method_in_brief": "as §1"}, "[7]": {"molecular_target": "Gal3S4S(b1-4)GlcNAc", "method_in_brief": "as §1"}, "[8]": {"molecular_target": "Gal3S6S(b1-4)GlcNAc", "method_in_brief": "as §1"}, "[9]": {"molecular_target": "Gal3S6S(b1-4)GlcNAc6S", "method_in_brief": "as §1"}, "[10]": {"molecular_target": "Gal4S(b1-4)GlcNAc", "method_in_brief": "as §1"}, "[11]": {"molecular_target": "Gal4S6S(b1-4)GlcNAc", "method_in_brief": "as §1"}, "[12]": {"molecular_target": "Gal6P(b1-4)GlcNAc", "method_in_brief": "as §1"}, "[13]": {"molecular_target": "Gal6S(b1-3)GlcNAc", "method_in_brief": "as §1"}, "[14]": {"molecular_target": "Gal6S(b1-3)GlcNAc6S", "method_in_brief": "as §1"}, "[15]": {"molecular_target": "Gal6S(b1-4)Glc", "method_in_brief": "as §1"}, "[16]": {"molecular_target": "Gal6S(b1-4)Glc6S", "method_in_brief": "as §1"}, "[17]": {"molecular_target": "Gal6S(b1-4)GlcNAc", "method_in_brief": "as §1"}, "[18]": {"molecular_target": "Gal6S(b1-4)GlcNAc6S", "method_in_brief": "as §1"}, "[19]": {"molecular_target": "GalNAc(a1-3)Gal", "method_in_brief": "as §1"}, "[20]": {"molecular_target": "GalNAc(a1-3)GalNAc", "method_in_brief": "as §1"}, "[21]": {"molecular_target": "GalNAc(a1-3)GalNAc(b1-3)Gal(a1-4)Gal(b1-4)Glc", "method_in_brief": "as §1"}, "[22]": {"molecular_target": "GalNAc(a1-3)GalNAc(b1-3)Gal(a1-4)Gal(b1-4)GlcNAc", "method_in_brief": "as §1"}, "[23]": {"molecular_target": "GalNAc(b1-3)Gal", "method_in_brief": "as §1"}, "[24]": {"molecular_target": "GalNAc(b1-3)Gal(a1-4)Gal(b1-4)GlcNAc", "method_in_brief": "as §1"}, "[25]": {"molecular_target": "GalNAc(b1-3)Gal(a1-4)Gal(b1-4)GlcNAc(b1-3)Gal(b1-4)Glc", "method_in_brief": "as §1"}, "[26]": {"molecular_target": "GalNAc(b1-3)Gal(a1-6)Gal(b1-4)Glc", "method_in_brief": "as §1"}, "[27]": {"molecular_target": "GalNAc(b1-3)GalNAc", "method_in_brief": "as §1"}, "[28]": {"molecular_target": "GalNAc(b1-3)GlcNAc", "method_in_brief": "as §1"}, "[29]": {"molecular_target": "GalNAc(b1-4)Gal(b1-4)Glc", "method_in_brief": "as §1"}, "[30]": {"molecular_target": "GalNAc(b1-4)GlcNAc", "method_in_brief": "as §1"}, "[31]": {"molecular_target": "GalNAc(b1-4)GlcNAc(b1-2)Man", "method_in_brief": "as §1"}, "[32]": {"molecular_target": "GalNAc(b1-4)GlcNAc(b1-2)Man(a1-3)[GalNAc(b1-4)GlcNAc(b1-2)Man(a1-6)]Man(b1-4)GlcNAc(b1-4)GlcNAc", "method_in_brief": "as §1"}, "[33]": {"molecular_target": "GalNAc(b1-4)GlcNAc(b1-3)GalNAc(b1-4)GlcNAc", "method_in_brief": "as §1"}, "[34]": {"molecular_target": "GalNAc(b1-4)GlcNAc6S", "method_in_brief": "as §1"}, "[35]": {"molecular_target": "GalNAc(b1-6)GalNAc", "method_in_brief": "as §1"}, "[36]": {"molecular_target": "GalNAc3S(b1-4)GlcNAc", "method_in_brief": "as §1"}, "[37]": {"molecular_target": "GalNAc3S(b1-4)GlcNAc3S", "method_in_brief": "as §1"}, "[38]": {"molecular_target": "GalNAc3S(b1-4)[Fuc(a1-3)]GlcNAc", "method_in_brief": "as §1"}, "[39]": {"molecular_target": "GalNAc4S6S(b1-4)GlcNAc", "method_in_brief": "as §1"}, "[40]": {"molecular_target": "GalNAc6S(b1-4)GlcNAc", "method_in_brief": "as §1"}, "[41]": {"molecular_target": "Glc(a1-4)Glc", "method_in_brief": "as §1"}, "[42]": {"molecular_target": "Glc(a1-4)Glc(a1-4)Glc(a1-4)Glc", "method_in_brief": "as §1"}, "[43]": {"molecular_target": "Glc(a1-6)Glc(a1-6)Glc", "method_in_brief": "as §1"}, "[44]": {"molecular_target": "Glc(a1-6)Glc(a1-6)Glc(a1-6)Glc", "method_in_brief": "as §1"}, "[45]": {"molecular_target": "Glc(b1-4)Glc", "method_in_brief": "as §1"}}, "note": "The list shows a part of the results."}
{"binder": "B1", "values": [{"measurement": "glycan array binding signal (z-score)", "setting": "[1]", "result": 0.559}, {"measurement": "glycan array binding signal (z-score)", "setting": "[2]", "result": 0.326}, {"measurement": "glycan array binding signal (z-score)", "setting": "[3]", "result": -0.697}, {"measurement": "glycan array binding signal (z-score)", "setting": "[4]", "result": 2.61}, {"measurement": "glycan array binding signal (z-score)", "setting": "[5]", "result": 1.34}, {"measurement": "glycan array binding signal (z-score)", "setting": "[6]", "result": 0.652}, {"measurement": "glycan array binding signal (z-score)", "setting": "[7]", "result": -0.987}, {"measurement": "glycan array binding signal (z-score)", "setting": "[8]", "result": 2.36}, {"measurement": "glycan array binding signal (z-score)", "setting": "[9]", "result": -0.441}, {"measurement": "glycan array binding signal (z-score)", "setting": "[10]", "result": -1.43}, {"measurement": "glycan array binding signal (z-score)", "setting": "[11]", "result": -1.04}, {"measurement": "glycan array binding signal (z-score)", "setting": "[12]", "result": 0.022}, {"measurement": "glycan array binding signal (z-score)", "setting": "[13]", "result": -0.626}, {"measurement": "glycan array binding signal (z-score)", "setting": "[14]", "result": 1.25}, {"measurement": "glycan array binding signal (z-score)", "setting": "[15]", "result": 0.36}, {"measurement": "glycan array binding signal (z-score)", "setting": "[16]", "result": -1.02}, {"measurement": "glycan array binding signal (z-score)", "setting": "[17]", "result": 0.571}, {"measurement": "glycan array binding signal (z-score)", "setting": "[18]", "result": -0.384}, {"measurement": "glycan array binding signal (z-score)", "setting": "[19]", "result": 0.952}, {"measurement": "glycan array binding signal (z-score)", "setting": "[20]", "result": 0.964}, {"measurement": "glycan array binding signal (z-score)", "setting": "[21]", "result": 1.06}, {"measurement": "glycan array binding signal (z-score)", "setting": "[22]", "result": 0.086}, {"measurement": "glycan array binding signal (z-score)", "setting": "[23]", "result": 0.893}, {"measurement": "glycan array binding signal (z-score)", "setting": "[24]", "result": 0.069}, {"measurement": "glycan array binding signal (z-score)", "setting": "[25]", "result": 0.831}, {"measurement": "glycan array binding signal (z-score)", "setting": "[26]", "result": -1.53}, {"measurement": "glycan array binding signal (z-score)", "setting": "[27]", "result": -0.397}, {"measurement": "glycan array binding signal (z-score)", "setting": "[28]", "result": -0.342}, {"measurement": "glycan array binding signal (z-score)", "setting": "[29]", "result": 0.111}, {"measurement": "glycan array binding signal (z-score)", "setting": "[30]", "result": 0.242}, {"measurement": "glycan array binding signal (z-score)", "setting": "[31]", "result": -0.994}, {"measurement": "glycan array binding signal (z-score)", "setting": "[32]", "result": 0.2}, {"measurement": "glycan array binding signal (z-score)", "setting": "[33]", "result": -0.383}, {"measurement": "glycan array binding signal (z-score)", "setting": "[34]", "result": -0.403}, {"measurement": "glycan array binding signal (z-score)", "setting": "[35]", "result": -0.244}, {"measurement": "glycan array binding signal (z-score)", "setting": "[36]", "result": 0.48}, {"measurement": "glycan array binding signal (z-score)", "setting": "[37]", "result": 0.932}, {"measurement": "glycan array binding signal (z-score)", "setting": "[38]", "result": -0.457}, {"measurement": "glycan array binding signal (z-score)", "setting": "[39]", "result": 1.07}, {"measurement": "glycan array binding signal (z-score)", "setting": "[40]", "result": 0.489}, {"measurement": "glycan array binding signal (z-score)", "setting": "[41]", "result": 0.209}, {"measurement": "glycan array binding signal (z-score)", "setting": "[42]", "result": 1.31}, {"measurement": "glycan array binding signal (z-score)", "setting": "[43]", "result": -0.503}, {"measurement": "glycan array binding signal (z-score)", "setting": "[44]", "result": -0.322}, {"measurement": "glycan array binding signal (z-score)", "setting": "[45]", "result": -0.571}]}
